Source: article PMC8964110

Target: EhVps23 (E. histolytica (endogenous in HM1:IMSS trophozoites))
Experiment: affinity purification with mass spectrometry; immunoprecipitation with α-EhVps23 antibody and protein G-agarose from trophozoite lysates (10 mM Tris-HCl, 50 mM NaCl, protease inhibitors, freeze-thawing; pre-cleared with Protein-G, 2 h at 4°C); precipitate separated by gel electrophoresis, LC-ESI-HDMSE

Binder | binding
Uncharacterized protein (EHI_161070) (protein, UniProt C4M2S3 1-211) MSATIEELKTCSNQQEFEAAGEAAKKWFTEVLSNGWTETTKGEVTIYDKPSVNNHHFIKTVTQSKLKAEDIFNKVKSADFATSHKYDKELVESEVLETINEHLKVTKQVNSAPWPVAAREFVSVLIDYEENGSFYIVSTSINYPKCDTVGKKYVRGVKLFGMKFTPNDEGCLIERVLEVDPRGSVIAMAVNASKKEDANRLLNMKKFFEQN | binds
Acetyl-CoA synthetase (protein, UniProt C4LUV9 1-713) MQFEPLFNPKSVAVIGASDRKESVGYAVMNNMIKGGYKGNLYPVGRKPELFGKKCYAKIGQIEEKVDLAVIAIPAKFVPGVCIECGEAGVKGLIIITAGFAEAGEEGKKMCIEIQATCQKYNMRMIGPNCLGIINPRDGVNASFASVMPEAGGVAFISQSGALCTAILDWAANQHVGFSYFVSIGSSIDTDYADLFEFFAKDPKVTSILMYIESIKDAKKFVLRAREFAADKPIILLKAGKSSEGAAAAMSHTGSLAGNDAVYDAVFDRCGCIRVDSICDLWDCAHVLATQNIPQNNRLCIITNAGGPGVISTDRLVSVHGHLAKLSESTMNELNAFLSPFWSHSNPVDVLGDATAGVYQKTLDIVIKDPQIDGVVVVLTPQAMTDPVAVAKSLVEHGPYQKPVLASWMGQSEVEAGVKILEEGKIPNFETPERAVTAFGYIMRHPDIAAKLKEIPKYLDVQVDYEGAKKLIADVVADGRTTFTEYEGKMMFSKYGIPIKGMAKASTEDEAVAEAMKIGTPVVMKILSPDIMHKTDVGGVKVKLTTEEEIRKAYRDIMTSVKEKKPEARIHGVLLEKMVGFKYECIIGCKKDPLFGPVIVFGMGGVTVELYKDTNIALPPIGLQEADRLIDGTKISKLLRGYRGMPACDVEGLKKILVQFSKMIMDFPEISEVDINPLAVSYEEFLVLDAKIVLDKNMIGKEVPKYSHLVIQP | binds
Thioredoxin domain-containing protein (protein, UniProt C4M3Q0 1-233) MSCNQQKECCKKECQEKECCKECCCPRIKAFKKFINTFEKAQIGKEAPEFKAPAYCPCGSIKEIDINEYRGKYVVLLFYPLDWTFVCPTEMIGYSELAGQLKEIDCEVIGVSVDSVYCHQAWCEADKSKGGVGKLTFPLVSDIKRCISIKYGMLNVEAGIARRGYVIIDDKGKVRYIQMNDDGIGRSTEETIRIVKAIQFSDEHGAVCPLNWKPGKDTIEPTPDGIKKYLTAH | binds
Adenylate kinase (protein, UniProt O96907 1-193) MAKVFLIMLGGPGAGKGTQCANIEKHLNSSAHISTGDLLRAEIKNKTEIGLKVEDIIRNGQLVSDEIICNMVNNFIAKNEKEVIVFDGYPRAVSQLEALLKEATAETKICVINLEIPDEILIQRIVSRGKTSGRADDNTEAAAKRLAVYHAQHDEMIKAIKAKNLPYFVVDHLGGPDEVFNEIKGVFANVGLH | binds
Fe-ADH domain-containing protein (protein, UniProt Q24857 1-384) MTMLNFTYYNPVRLIYGKGSLDEIEKQHLIPEDARIMMTYGGGSIKKNGVYEEVLKHIKPIVEFGGIEPNPSHETCIKAIKIAKENKINFLVAVGGGSIIDATKYIALGMEHTYSDDPYDICLKGGKFKVNPAQAKIGVVLTIPATGSETNCWGVISRHADKLKLPFNNESVFPTWSIVDPCFTMSLPDNQIRNGLVDSFVHCIEQYIGNYHLNPVVEAETEGVMRTIIGVSHKTLENHQDYQARITFCYAATVALNMSLLCGVTLCGGAHAVGHELTSYYGLAHGETLAITTPGVMRFNKEKNAKKLIQMGEQVFGIKNSTPEAAIEATEKWFKSIGMKTRLSEWGKGKEEFETIARKFEGNPAGAHKDIDYKGCLQILNDIY | binds
EhRabC3 (protein, UniProt A0A8U0WP91 1-208) MSRGNYDHLFKILIIGESGVGKTAIMQRFCENTFEPVYISTVGVDFKPKVIKVGNKTVKMQLWDTAGQDRFRNITASYYRGTQGVLIVYDVTDRASFDKVSSWFTEVRDRTENDPPVIILVGNKTDLMDHAAVKQEAVEQLARQLGGVQTFTCSAKDGSGIDEVFNALTQAIISKVGCAPGKKEDPSVVQLGGKGGSQPAQKSEGGCC | binds
Profilin (protein, UniProt P49230 1-130) MSWQSYVDSFLVGAGKGMGGAIIGLQGGVWAASANCTPSAQESVAIGTACASNIAGLQQTGVVIGGKKYMITRVDADEGTAMGKKGAEGISIYKTKQAVIIGYFSDASVSAGQNSDATYKCAKYLMDAGY | binds
ADF-H domain-containing protein (protein, UniProt C4LVG4 1-138) MAGIQLADEVTSVYNDFKLSHKYRYIVFKMNDGMTEVVVEKTAEKNATYDDFLKDLPEKSARYAVYDLEYDTPEGLRQKIIFYLWTPEGCKIREKMLYSATKATIKQALVGLSAEIQATDAGELNLDEVIAKVKTISK | binds
Adenylyl cyclase-associated protein (protein, UniProt C4M295 1-478) MSTEAELKTLLAQVMNRLETVTARLEKLEGNTTNSTKSSTSNSTCECGDVPKAVQAFKELIEEYLKPQVEAAQGFDEILGKCMNDFLNVAEQVSGLIEVAAKSQKPTQEEFQKMIQPISEKMMAVGEYKDKNFKSPYINYLSAIGEAVPVFGWICVEKTPAPYVADLIPGSEFYTNKVLVATKGKEQNKYDWALNFIKFLKEMVVYIKQYHTTGLTWNPKGGVASAQAAPVAPKVETPKEEPKPVVKQQQPNPAGLFAELNKGTAISGGLKHVTADMKTKNMKPEDKVPLEPKKVTTNTPKPATAKSVVQKPPKIEKNLNKWDISYHNGNKNIEIDGTFQDSIYIFKCENSAVKVNGKINCISVDGCKKLTLICDTIVSYVEVINCNSIDIRVIELTPTVNIDKSQSVNVHLSEKALDGNTTVNTSKCDAVNISFPNPEDKEDEVEYPIPEQIYTIVKENKLYPQIYFHDKSSYYFPK | binds
Phosphoglycerate kinase (protein, UniProt C4M192 1-415) MGFTKKSLDQIDVKDKRVFMRVDFNVPMEKGKITNTKRIDATIPSIQYCLDHGCKAVVLASHLGRPDGHVVPELTLKPVAEKLEEILKHKVIFLNDCVGEEVIKACANPAPGSVILLENVRFHPEEEGSSIVDGKKVKADPEKVKEFREQLTKLGDVYVNDAFGTVHRAHSTMVGVNLSPKVSGFLVKKELGYFAKAFDHINRPYLGILGGAKVADKIPIINNFLEKVDQLIICGGMAYTFLAASKNMKIGKSLFDASKVEMCKELLAKAEAKKVEILLPFDFVACDKFGEDANTQICTLEEGIPEGWEGVDCGPKTSALWREKILAAKTIMWNGPCGVFEIDKFSAGTKALCEAVAAATQAGVLTIVGGGDTPTALKKFGLDKQVSHISTGGGASLELLQGLPLPGVANLDDAE | binds

Results are given in words; binding and its absence hold for the method and conditions named. In cells and extracts the contact can be indirect. These calls come from enrichment with a bait or labelling near it, and not all partners need be listed.
